Library screen at single concentrations

Amino acid sequences for entries named in this document (tags omitted).
UniProt I6X8D2, whole entry: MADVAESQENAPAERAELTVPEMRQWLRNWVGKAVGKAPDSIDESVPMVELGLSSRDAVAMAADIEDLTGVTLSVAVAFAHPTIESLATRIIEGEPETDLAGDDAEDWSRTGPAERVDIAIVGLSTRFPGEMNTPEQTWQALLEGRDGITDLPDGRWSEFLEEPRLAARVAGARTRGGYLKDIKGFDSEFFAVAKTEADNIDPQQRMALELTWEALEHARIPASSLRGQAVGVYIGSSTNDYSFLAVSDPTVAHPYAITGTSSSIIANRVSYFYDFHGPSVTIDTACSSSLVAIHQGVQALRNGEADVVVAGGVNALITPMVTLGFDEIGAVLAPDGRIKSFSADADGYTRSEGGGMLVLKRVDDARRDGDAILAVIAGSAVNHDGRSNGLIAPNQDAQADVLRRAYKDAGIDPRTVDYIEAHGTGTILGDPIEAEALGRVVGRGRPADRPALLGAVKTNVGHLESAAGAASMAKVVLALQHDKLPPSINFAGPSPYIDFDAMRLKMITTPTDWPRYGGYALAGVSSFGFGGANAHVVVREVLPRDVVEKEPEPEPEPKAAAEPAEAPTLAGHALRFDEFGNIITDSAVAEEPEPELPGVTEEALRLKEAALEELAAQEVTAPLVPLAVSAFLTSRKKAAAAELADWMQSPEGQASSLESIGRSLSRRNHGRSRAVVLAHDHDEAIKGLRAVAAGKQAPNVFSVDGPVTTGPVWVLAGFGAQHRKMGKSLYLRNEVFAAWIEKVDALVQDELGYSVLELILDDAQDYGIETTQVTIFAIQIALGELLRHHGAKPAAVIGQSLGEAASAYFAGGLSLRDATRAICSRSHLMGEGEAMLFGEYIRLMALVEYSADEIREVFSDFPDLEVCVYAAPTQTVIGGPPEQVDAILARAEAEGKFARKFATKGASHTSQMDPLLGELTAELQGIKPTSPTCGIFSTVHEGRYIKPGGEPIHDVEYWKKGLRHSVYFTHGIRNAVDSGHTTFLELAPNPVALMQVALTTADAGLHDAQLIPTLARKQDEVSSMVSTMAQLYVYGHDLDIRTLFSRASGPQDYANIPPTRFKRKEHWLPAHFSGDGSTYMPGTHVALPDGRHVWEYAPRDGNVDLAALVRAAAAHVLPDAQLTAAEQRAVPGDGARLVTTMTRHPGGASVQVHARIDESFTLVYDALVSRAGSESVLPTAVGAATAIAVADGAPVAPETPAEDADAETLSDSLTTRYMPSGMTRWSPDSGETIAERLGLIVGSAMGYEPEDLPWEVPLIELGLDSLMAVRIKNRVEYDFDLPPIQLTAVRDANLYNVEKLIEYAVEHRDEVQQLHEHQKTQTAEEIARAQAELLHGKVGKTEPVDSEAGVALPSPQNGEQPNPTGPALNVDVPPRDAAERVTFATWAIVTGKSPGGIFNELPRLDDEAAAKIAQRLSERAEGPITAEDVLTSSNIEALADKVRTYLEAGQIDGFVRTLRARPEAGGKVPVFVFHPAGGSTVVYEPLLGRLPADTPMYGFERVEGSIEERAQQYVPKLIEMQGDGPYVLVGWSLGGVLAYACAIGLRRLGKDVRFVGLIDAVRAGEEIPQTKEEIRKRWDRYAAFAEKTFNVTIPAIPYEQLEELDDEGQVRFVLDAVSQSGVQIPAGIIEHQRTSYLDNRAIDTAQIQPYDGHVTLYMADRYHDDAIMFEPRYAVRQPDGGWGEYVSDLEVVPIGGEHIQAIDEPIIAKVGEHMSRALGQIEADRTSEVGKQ
UniProt P9WNZ1, whole entry: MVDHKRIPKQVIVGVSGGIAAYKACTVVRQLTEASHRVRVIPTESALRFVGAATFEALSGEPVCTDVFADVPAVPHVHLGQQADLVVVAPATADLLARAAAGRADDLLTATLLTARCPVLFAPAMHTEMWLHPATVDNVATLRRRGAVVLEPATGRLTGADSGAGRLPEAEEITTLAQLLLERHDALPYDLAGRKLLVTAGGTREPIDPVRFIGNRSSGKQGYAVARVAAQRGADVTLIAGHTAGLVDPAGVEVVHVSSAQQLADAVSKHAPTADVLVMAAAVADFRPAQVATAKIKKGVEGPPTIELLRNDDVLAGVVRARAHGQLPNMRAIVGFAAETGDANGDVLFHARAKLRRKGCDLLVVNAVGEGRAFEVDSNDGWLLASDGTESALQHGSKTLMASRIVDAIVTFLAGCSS
UniProt P9WFT3, whole entry: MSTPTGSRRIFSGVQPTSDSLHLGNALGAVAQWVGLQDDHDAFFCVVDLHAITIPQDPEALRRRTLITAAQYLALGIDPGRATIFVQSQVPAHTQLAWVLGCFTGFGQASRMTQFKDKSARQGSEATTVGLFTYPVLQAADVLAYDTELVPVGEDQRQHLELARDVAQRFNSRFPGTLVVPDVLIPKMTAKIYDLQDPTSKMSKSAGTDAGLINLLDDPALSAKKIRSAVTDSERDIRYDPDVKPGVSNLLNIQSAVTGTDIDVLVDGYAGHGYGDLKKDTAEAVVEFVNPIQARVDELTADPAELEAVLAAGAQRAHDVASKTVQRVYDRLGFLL

Data taken from ChEMBL document CHEMBL3988442, “University of Dundee, Small-Polar-MMV Screening Library” (2021).

Pks13 thioesterase: 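Enzyme assay of the thioesterase domain of polyketide synthase 13; the read-out is not stated. Target: Polyketide synthase Pks13, Mycobacterium tuberculosis (UniProt I6X8D2). Concentration: 30 µM. Higher reads as stronger inhibition (inferred from which compounds were picked for retests). Of about 67,000 compounds tested this way, about 300 (0.46%) reached 50% or more in at least one test.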
CoaBC: 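Enzyme assay of CoaBC with a phosphate dye (Biomol Green) read at 650 nm. Target: Coenzyme A biosynthesis protein CoaBC, Mycobacterium tuberculosis (UniProt P9WNZ1). Tested at 30 µM. Direction is inferred from only a few compounds that gave an IC50; most scored high, so higher reads as stronger inhibition. Most strong results did not repeat in a second test. Of about 67,000 compounds tested this way, about 40 (0.06%) reached 50% or more in at least one test.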
Leishmania in macrophages: 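Cell assay of Leishmania donovani living inside macrophages; the read-out is not stated. Tested at 30 µM. Higher reads as stronger inhibition (inferred: compounds with an IC50 in retests scored well above the rest). About 69,000 compounds were tested under these conditions; 1.5% (about 1,000) showed 50% or more at least once.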
MtTrpRS: 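Tryptophan-tRNA ligase, Mycobacterium tuberculosis (UniProt P9WFT3). Enzyme assay of tryptophanyl-tRNA synthetase; the read-out is not stated. Concentration: 10 µM. Direction is not recorded; retested compounds ran higher, which suggests that high means inhibition. Of about 65,000 compounds tested this way, about 64 (0.098%) reached 50% or more in at least one test.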

The filed quantity is “Percent Effect” (%). How 0% and 100% were set is not recorded. Most values in the screen are low, and negative values occur. This is an unselected part of the compounds tested. A dash means the value is not listed here; it may have been measured.

{"smiles": "CC(=O)c1c(C)nn(CC(=O)N2CCCC2c2ccc(C(N)=O)s2)c1C", "stereo": "centres unmarked", "Pks13 thioesterase": 8.612, "CoaBC": 3.083, "Leishmania in macrophages": 42.8, "MtTrpRS": 2.252}
{"smiles": "Cc1ccc(C(=O)Nc2nn[nH]n2)s1", "Pks13 thioesterase": -18.01, "CoaBC": -27.34, "Leishmania in macrophages": 32.95, "MtTrpRS": -2.023}
{"smiles": "NC1(c2nc(C(F)(F)F)cc(=O)[nH]2)CCCCC1", "Pks13 thioesterase": -15.31, "CoaBC": 4.294, "MtTrpRS": 0.2467}
{"smiles": "O=S(=O)(NCc1ccccc1Cn1cncn1)C1CCCC1", "Pks13 thioesterase": -13.82, "CoaBC": 3.916, "Leishmania in macrophages": 4.196, "MtTrpRS": -1.267}
{"smiles": "O=C(NCCn1cccn1)c1nnc2ccccc2n1", "Pks13 thioesterase": 7.856, "CoaBC": 5.396, "Leishmania in macrophages": -83.91, "MtTrpRS": 9.749}
{"smiles": "O=C(N[C@@H]1CN(Cc2ccsc2)[C@@H]2CCCO[C@@H]21)C1CC1", "Pks13 thioesterase": -14.58, "CoaBC": 4.188, "MtTrpRS": 3.253}
{"smiles": "CC(C)=CCN1C[C@@H]2CN(C(=O)c3cnccc3C)C[C@]2(C(=O)O)C1", "Pks13 thioesterase": 21.31, "CoaBC": -2.99, "MtTrpRS": -1.22}
{"smiles": "Cc1noc(CNC(=O)NCCc2ccc(Cl)cc2)n1", "Pks13 thioesterase": -3.755, "CoaBC": -9.13, "Leishmania in macrophages": 10.85, "MtTrpRS": -1.06}
{"smiles": "COc1cccc(CN2C[C@@H]3COC[C@]3(CN3CCOCC3)C2)c1", "Pks13 thioesterase": 0.5071, "CoaBC": 4.665, "MtTrpRS": -3.438}
{"smiles": "CCn1cc(CN2CCCN(C(=O)c3cc(C)no3)CC2)cn1", "Pks13 thioesterase": -20.06, "CoaBC": 5.483, "Leishmania in macrophages": 6.541, "MtTrpRS": -2.633}
{"smiles": "CN(Cc1cn2c(n1)CN(C1CCOC1)CC2)Cc1ccco1", "stereo": "centres unmarked", "Pks13 thioesterase": -13.96, "CoaBC": 9.01, "MtTrpRS": -0.1049}
{"smiles": "COCCC(=O)N1CCN(CC(C)C)c2nc(C)ccc2C1", "Pks13 thioesterase": -34.4, "CoaBC": 3.893, "MtTrpRS": -0.7319}
{"smiles": "CCN(CC)C(=O)c1cc(C2(C)CCN(C(C)=O)CC2)nc(C)n1", "Pks13 thioesterase": -1.666, "CoaBC": 1.675, "Leishmania in macrophages": 9.561, "MtTrpRS": 0}
{"smiles": "CCS(=O)(=O)N1Cc2[nH]nc(COCc3cccnc3)c2C1", "Pks13 thioesterase": 2.898, "CoaBC": 2.439}
{"smiles": "CCOc1cccc2c1OCC(C(=O)NC(C)Cn1cccn1)=C2", "stereo": "centres unmarked", "Pks13 thioesterase": 7.533, "CoaBC": -1.653, "Leishmania in macrophages": 4.205, "MtTrpRS": 8.221}
{"smiles": "CC(C)CN1C[C@H]2CCN(C(=O)C3CCCO3)CC[C@H]2S1(=O)=O", "stereo": "some centres unmarked", "Pks13 thioesterase": -23.98, "MtTrpRS": -1.187}

Some entries from above, unchanged:

SMILES	Pks13 thioesterase	CoaBC	Leishmania in macrophages	MtTrpRS
NC1(c2nc(C(F)(F)F)cc(=O)[nH]2)CCCCC1	-15.31	4.294	-	0.2467
CCS(=O)(=O)N1Cc2[nH]nc(COCc3cccnc3)c2C1	2.898	2.439	-	-